According to PubChem BioAssay AID2685 (National Center for Advancing Translational Sciences (NCATS), 2010):
The other results are listed elsewhere or left out. The main result of the screen is listed elsewhere. These columns were measured beside it and carry no call. Most of these compounds were active or inconclusive in the main read-out, so they are no random draw. Words in brackets tell the shape of the fitted curve; partial curves, single points and poor fits give uncertain potencies.

Test: qHTS Assay for Lipid Storage Modulators in Drosophila S3 Cells;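 as to cell number change: cells counted by Cell Tracker Red CMTPX staining in the red channel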
Details: BODIPY lipid droplet fluorescence, 18-24 h; for cell number change: measured here: cell count max response, cells fed with added oleic acid
Method in brief: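 Drosophila S3 cells got compounds at several concentrations plus oleic acid (400 uM solution). Laser-scanning cytometry with 488 nm excitation read lipid droplets at 500-530 nm and cells at 575-640 nm. Percent activity was relative to 20 uM Triacsin C.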

[1] = measured here: cell number channel AC50, cells fed with added oleic acid
[2] = measured here: lipid fluorescence (Fed channel) AC50, cells fed with added oleic acid

| Compound | AC50 [1] | AC50 [2] | cell number change [%] |
| --- | --- | --- | --- |
| COc1ccc(/C=C(/C#N)C(=O)Nc2cc(C)ccc2C)cc1C(=O)O | 1.84 µM [falling, partial curve] | 23.1 µM [rising, single point] | – |
| C/C(CCN1CCc2nc(-c3ccccc3)c(-c3ccccc3)cc2C1)=N\O[C@H](C)c1cn([C@H](CO)Cc2ccccc2)nn1 | – | 23.1 µM [rising, single point] | 7.08 |
| Cc1ccc(S(=O)(=O)CC(O)COc2ccc(C#N)cc2)cc1 (centres undefined) | 32.6 µM [falling, single point] | – | -38.8 |
| Cc1ccc(C(=O)O)cc1NC(=S)NC(=O)c1ccc([N+](=O)[O-])cc1Cl | – | – | 2.17 |
| C/C(=N\NC(=O)CSc1ncccn1)c1ccc2c(c1)OCCO2 | – | 0.58 µM [rising, single point] | – |
| O=C(COC(=O)CC12CC3CC(CC(C3)C1)C2)Nc1ncc(Cl)cc1Cl | 0.517 µM [falling, full curve] | 1.3 µM [falling, full curve] | -38.4 |
| CCN(CC)S(=O)(=O)c1cccc(C(=O)N2CCCc3ccccc32)c1 | – | 32.6 µM [rising, single point] | 10.1 |
| CC(=O)Nc1ccc(-c2nnc(SCC(=O)NCc3ccco3)n2C)cc1 | – | 0.0058 µM [falling, full curve, poor fit] | -14.8 |
| COC(=O)Cn1ncc2c3ccccc3n(Cc3ccccc3)c2c1=O | 0.0092 µM [rising, full curve, poor fit] | 1.46 µM [rising, partial curve] | -6.38 |
| CN(C)CCCN1C(=O)C(=O)/C(=C(/O)c2ccncc2)C1c1ccccc1 (centres undefined) | – | 0.082 µM [falling, full curve, poor fit] | -10.7 |
| CN1CCN(c2oc(-c3ccccc3)nc2S(=O)(=O)c2ccc(Br)cc2)CC1 | 0.82 µM [rising, full curve, poor fit] | 14.6 µM [rising, partial curve] | 35.8 |
| Cc1ccnc(NS(=O)(=O)c2cccc3nsnc23)c1 | – | – | -0.74 |
| COc1ccccc1C1=CC(=O)C[C@H](c2ccc3c(c2)OCO3)C1 | – | 0.366 µM [rising, full curve, poor fit] | -9.63 |
| Cc1cccc(N(C)S(=O)(=O)c2ccc3c(c2)NC(=O)CC(=O)N3)c1 | – | 29.1 µM [rising, single point] | 6.77 |
| Cc1cccc2[nH]c3c(N4CC=C(c5ccc(F)cc5)CC4)ncnc3c12 | – | 32.6 µM [falling, single point] | -28.5 |
| CCOC(=O)N1CCN(c2cc3nccnc3cc2F)CC1 | 13 µM [rising, partial curve] | 6.51 µM [rising, single point] | 54 |
| CC1CCCCN1C(=O)COC(=O)CNC(=O)c1sc2ccccc2c1Cl (centres undefined) | 1.3 µM [falling, full curve] | 1.3 µM [falling, full curve] | 11 |
| O=C(O)C1CCC(=O)N1C(=O)OCc1ccccc1 (centres undefined) | – | 29.1 µM [falling, partial curve, poor fit] | 17 |
| COc1cc(C(=O)N2CCN(c3ccccc3OC)CC2)c([N+](=O)[O-])cc1OC | 0.0058 µM [falling, full curve, poor fit] | 0.0058 µM [falling, full curve, poor fit] | -2.98 |

| Compound | AC50 [1] | AC50 [2] | cell number change [%] |
| --- | --- | --- | --- |
| Cc1cc(N2CCOCC2)ccc1/C=C1\SC(=O)N(C(C)C)C1=O | – | – | 29.6 |
| O=C1N=C(N2CCCC2)S/C1=C\c1cn[nH]c1-c1ccccc1 | – | 23.1 µM [rising, partial curve] | 4.18 |
| O/N=C(/c1ccc(F)cc1)C1CC1c1c(F)cccc1Cl (centres undefined) | 29.1 µM [falling, single point] | 29.1 µM [falling, single point] | -40.2 |
| O=C(COc1ccccc1)Nc1ccccc1C(=O)NC1CC1 | 0.291 µM [rising, full curve, poor fit] | 0.517 µM [rising, partial curve] | 21.9 |
| Cc1ccc(NC(=O)CCC(=O)N/N=C/c2ccc([N+](=O)[O-])o2)cc1C | – | 32.6 µM [falling, single point] | -17.4 |
| CCn1c(SCc2ccccc2F)nnc1-c1ccncc1 | – | 9.2 µM [rising, partial curve] | 19.1 |
| CSCCC(NC(=O)c1ccc([N+](=O)[O-])cc1Cl)C(=O)OCC(=O)NC1CCCC(C)C1C (centres undefined) | 7.31 µM [falling, single point] | – | – |
| O=C(Nc1nnc(SCc2ccccc2)s1)c1cccc([N+](=O)[O-])c1 | – | 0.116 µM [rising, full curve, poor fit] | 16.3 |
| CCCn1c(C(C)Nc2nc(-c3ccc(OC)cc3)cs2)nc2ccccc21 (centres undefined) | – | 29.1 µM [rising, partial curve] | 19.7 |
| O=C(CCC1CCN(C(=O)Cc2c(F)cccc2F)CC1)NC1CC1 | 2.31 µM [rising, partial curve, poor fit] | – | 9.24 |
| COC(=O)COc1ccc(NS(=O)(=O)c2cccc([N+](=O)[O-])c2)cc1 | – | – | 25.7 |
| COc1cc(NC(=O)C2CCCCC2)c(OC)cc1NC(=O)c1ccccc1 | 25.9 µM [falling, single point] | – | -32.5 |
| CC(C)COc1ccc(C(=O)N(CC(=O)Nc2ccccc2C(F)(F)F)Cc2ccco2)cc1 | – | 0.651 µM [rising, full curve, poor fit] | 24.2 |
| O=C(NCCc1ccc(Cl)cc1)c1ncn[nH]1 | – | 29.1 µM [falling, single point] | -9.12 |
| Cc1ccc(Cn2ncn3c(cc4ccccc43)c2=O)cc1 | 32.6 µM [falling, single point] | – | -30.2 |
| CCn1c(SCC(=O)Nc2cc(C(C)(C)C)nn2-c2ccccc2)nnc1-c1cccs1 | 1.3 µM [rising, full curve] | 0.517 µM [rising, full curve] | 45.3 |
| CCOC(=O)/C(=C\C=C1/Sc2ccccc2N1CC)C(C)=O | 18.4 µM [falling, single point] | 18.4 µM [falling, single point] | -38.2 |
| Cc1nc(N2CCN(C(=O)c3ccco3)CC2)[nH]c(=O)c1C | – | – | 44.6 |
| CN1CCc2c(sc3c2C(=O)NC(c2ccco2)N3)C1 (centres undefined) | – | – | 1.55 |

| Compound | AC50 [1] | AC50 [2] | cell number change [%] |
| --- | --- | --- | --- |
| CC1CC(C)CN(C(=O)c2cccc3c2-c2ccccc2C3=O)C1 (centres undefined) | – | 18.4 µM [rising, single point] | 0.292 |
| COc1ccc(OC)c(CN2CCN(c3ccc(S(=O)(=O)N4CCCC4)cn3)CC2)c1 | – | 7.31 µM [falling, partial curve, poor fit] | -16.6 |
| Cc1cc(C)cc(N=c2c([N+](=O)[O-])nn(-c3cccc(Cl)c3)n2O)c1 | 11.6 µM [falling, partial curve] | 8.2 µM [falling, partial curve] | -66.8 |
| C=CCn1c(N2CCCCCC2)nc2c1c(=O)[nH]c(=O)n2C | – | – | 80.3 |
| O=C1CSC(c2cn(-c3ccccc3)nc2-c2cc3ccccc3oc2=O)N1Cc1ccccc1 (centres undefined) | 2.06 µM [rising, partial curve] | 9.2 µM [rising, partial curve] | – |
| O=C(Nc1ccc(Cl)cc1C(=O)NCC1CCCO1)c1ccco1 (centres undefined) | – | – | 0.128 |
| COc1ccc(C(=O)Nc2ccc(NC(=O)c3ccco3)cc2)cc1 | 25.9 µM [rising, single point] | – | 44.6 |
| CCOC(=O)C1CCN(C(=O)COc2ccc(Br)cc2Br)CC1 | 3.66 µM [falling, full curve] | 4.11 µM [falling, full curve] | -46.1 |
| Cc1cc(NC(=O)CSc2nc3cc(Cl)ccc3o2)no1 | 25.9 µM [rising, single point] | – | 47.4 |
| Cc1cccc(OCc2nnc(-c3ccc(F)cc3)o2)c1 | – | 3.26 µM [rising, single point] | 3.89 |
| Cc1cccc(C(=O)Nc2ccc(N3CCN(C(=O)c4ccco4)CC3)cc2)c1 | – | 11.6 µM [falling, single point] | 2.7 |
| Cc1cccc(NC(=O)N2CCC(NC(=O)c3ccco3)CC2)c1 | 18.4 µM [falling, single point] | 0.82 µM [falling, full curve, poor fit] | -45.3 |
| CCN(CC)c1ccc(/C=C(\C#N)c2nc(-c3cccs3)c(NC(C)=O)s2)cc1 | 5.17 µM [falling, full curve] | 4.61 µM [falling, full curve] | -101 |
| CC(C)(C)C(=O)OCC1OC(n2cnc(C(N)=O)n2)C(O)C1O (centres undefined) | 18.4 µM [falling, partial curve] | 20.6 µM [falling, partial curve] | -99.1 |
| O=S1(=O)CCN2C=C(Br)C=C(Br)C2=N1 | – | 1.46 µM [falling, partial curve, poor fit] | 1.47 |
| COc1ccc(C(C)(C)C)cc1NC(=O)CCCN1C(=O)CN(C)C1=O | – | – | 24.5 |
| CCCCC(=O)Nc1ccc(C(=O)Nc2ccc(OC)cc2[N+](=O)[O-])cc1 | – | 16.4 µM [falling, partial curve] | 0.825 |
| CCOc1ccc(C(C)=O)cc1CC(C(N)=O)C(N)=O | 23.1 µM [falling, single point] | 18.4 µM [falling, single point] | -65.5 |
| O=C(Nc1cccc(Cl)c1)c1ccc(-n2cncn2)c([N+](=O)[O-])c1 | 0.411 µM [rising, full curve, poor fit] | 0.731 µM [rising, full curve] | – |

Single values from the entries so far.
For cell number change [%], CCCCC(=O)Nc1ccc(C(=O)Nc2ccc(OC)cc2[N+](=O)[O-])cc1 is entered as 0.825
For AC50 [1], Cc1cc(NC(=O)CSc2nc3cc(Cl)ccc3o2)no1 is entered as 25.9 µM [rising, single point]
For cell number change [%], Cc1cccc(C(=O)Nc2ccc(N3CCN(C(=O)c4ccco4)CC3)cc2)c1 is entered as 2.7
